PubChem BioAssay AID493246 | Drosophila RNAi Screening Center – 2011
The deposit covers about 21,000 reagents; this is a random part of those with a known target gene and a result. Over the whole deposit, 429 (2%) got an active call. 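Values are raw and not normalised between plates; calls rest on per-plate z-scores that were not deposited.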 Reagents against one gene are numbered here. A plus sign joins genes that one reagent is predicted to hit. Not stated in the record: the amount of reagent, the time to read-out.

Screen: 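Genome-wide search for dsRNAs that reduce cell number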 (primary screen)
Cell system: Drosophila Kc and S2R+ cells
Reagent: long dsRNA against Drosophila genes
Measured: 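Raw, unnormalised count of remaining cells in each well; per-plate z-scores of cell number underlie the calls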
Scale: Kc cell number and S2R+ cell number: higher = more cells remaining
Call rule: 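Active when the per-plate z-score of cell number is 3 or more in the direction of fewer cells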

target gene,reagent,"Kc cell number, rep 1","Kc cell number, rep 2","S2R+ cell number, rep 1","S2R+ cell number, rep 2",activity call
Tsp2A,1,1.41e6,1.44e6,1.02e6,1.14e6,inactive
east,1,1.29e6,1.38e6,7.98e5,9.20e5,inactive
Mi-2 + Su(Tpl),1,1.39e6,1.45e6,1.11e6,1.27e6,inactive
CG8197,1,1.50e6,1.52e6,1.26e6,1.34e6,inactive
His3.3A,1,1.14e6,1.12e6,6.23e5,7.51e5,active
grsm,1,1.50e6,1.13e6,7.08e5,7.07e5,active
grsm,2,1.61e6,1.46e6,1.09e6,1.18e6,inactive
CG4576,1,1.36e6,1.31e6,1.07e6,1.23e6,inactive
l(1)G0004,1,1.44e6,1.52e6,1.01e6,1.14e6,inactive
alpha-Man-IIb,1,1.59e6,1.65e6,1.17e6,1.26e6,inactive
Skadu,1,1.43e6,1.49e6,8.71e5,1.09e6,inactive
Catsup,1,1.48e6,1.59e6,1.18e6,2.85e5,inactive
PIG-Wa,1,1.58e6,1.61e6,1.12e6,1.23e6,inactive
CG15375,1,1.68e6,1.67e6,1.00e6,1.18e6,inactive
CG5890,1,1.41e6,1.48e6,9.59e5,1.11e6,inactive
nonA,1,1.59e6,1.54e6,9.40e5,1.07e6,inactive
cta,1,1.25e6,1.35e6,1.15e6,1.22e6,inactive
GstE7,1,1.44e6,1.48e6,1.27e6,1.26e6,inactive
Zip42C.1,1,1.73e6,1.82e6,1.35e6,1.54e6,inactive
Rad9,1,1.58e6,1.61e6,1.32e6,1.38e6,inactive
CG12213,1,1.31e6,1.38e6,1.08e6,1.20e6,inactive
Gr64b,1,1.76e6,1.67e6,1.11e6,1.48e6,inactive
CG7059,1,1.21e6,1.28e6,1.12e6,1.25e6,inactive
sad,1,1.58e6,1.65e6,1.33e6,1.48e6,inactive
TotF,1,1.57e6,1.63e6,1.31e6,2.65e5,inactive
Pdcd4,1,1.62e6,1.60e6,1.02e6,1.12e6,inactive
dnc,1,1.52e6,1.54e6,9.34e5,1.11e6,inactive
dnc,2,1.53e6,1.63e6,1.05e6,1.18e6,inactive
dnc,3,1.49e6,1.54e6,1.08e6,1.20e6,inactive
dnc,4,1.59e6,1.54e6,1.07e6,1.24e6,inactive
dnc,5,1.60e6,1.68e6,1.06e6,1.26e6,inactive
eIF3f1,1,1.31e6,1.38e6,9.49e5,1.07e6,inactive

Records above whose target name begins with P or p:
target gene,reagent,"Kc cell number, rep 1","Kc cell number, rep 2","S2R+ cell number, rep 1","S2R+ cell number, rep 2",activity call
PIG-Wa,1,1.58e6,1.61e6,1.12e6,1.23e6,inactive
Pdcd4,1,1.62e6,1.60e6,1.02e6,1.12e6,inactive

Continued.
target gene,reagent,"Kc cell number, rep 1","Kc cell number, rep 2","S2R+ cell number, rep 1","S2R+ cell number, rep 2",activity call
CG11044,1,1.70e6,1.72e6,1.27e6,1.49e6,inactive
CG14615,1,1.45e6,1.55e6,9.63e5,1.03e6,inactive
Act88F,1,1.29e6,1.30e6,9.33e5,1.06e6,inactive
CG18659,1,1.45e6,1.51e6,1.21e6,1.31e6,inactive
Mtap,1,1.36e6,1.43e6,9.17e5,8.15e5,inactive
CG11398,1,1.42e6,1.44e6,1.04e6,1.20e6,inactive
CG15579,1,1.50e6,1.47e6,1.03e6,1.12e6,inactive
GluClalpha,1,1.28e6,1.41e6,1.05e6,1.07e6,inactive
CG14195,1,1.50e6,1.51e6,9.87e5,1.08e6,inactive
AGO1,1,1.42e6,1.44e6,6.86e5,7.85e5,inactive
CG12493,1,1.50e6,1.37e6,1.18e6,1.20e6,inactive
CG12288,1,1.55e6,1.60e6,1.19e6,1.33e6,inactive
Hmt-1,1,1.62e6,1.72e6,1.16e6,1.25e6,inactive
CG30486,1,1.56e6,1.62e6,1.35e6,1.44e6,inactive
Nup75,1,1.25e6,1.18e6,9.50e5,1.08e6,inactive
ksh,1,1.56e6,1.65e6,1.13e6,1.24e6,inactive
CG16974,1,1.50e6,1.67e6,1.33e6,1.35e6,inactive
Piezo,1,1.33e6,1.39e6,6.16e5,8.86e5,inactive
CG9917,1,5.99e5,,9.33e5,,inactive
zf30C,1,1.52e6,1.49e6,1.35e6,1.24e6,inactive
stw,1,1.47e6,1.55e6,1.32e6,1.27e6,inactive
stw,2,1.53e6,1.53e6,1.35e6,1.28e6,inactive
CG8642,1,1.80e6,1.81e6,1.44e6,1.64e6,inactive
RpL10,1,8.40e5,9.11e5,7.47e5,8.44e5,active
Osi16,1,1.57e6,1.70e6,1.33e6,1.55e6,inactive
CG32073,1,1.64e6,1.67e6,1.19e6,1.36e6,inactive
CG32073,2,1.36e6,1.35e6,1.18e6,1.30e6,inactive
